## Library screening results

The values are deposited in ChEMBL (CHEMBL3988442, “University of Dundee, Small-Polar-MMV Screening Library” (2021)).

Mtb growth Cornell: 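Whole-cell assay for inhibitors of Mycobacterium tuberculosis growth, labelled Cornell in the record; the read-out is not stated. The concentration is filed as 10 mM, unlikely as a test dose, so the dose is not known. The record gives no direction; compounds strong in two other growth screens of this library score well above the rest, so higher reads as stronger inhibition. About 53,000 compounds were tested under these conditions; 1.7% (about 900) showed 50% or more at least once.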
Mtb heat-shock: 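Assay on Mycobacterium tuberculosis, filed only as a heat shock assay from Cornell; the read-out is not stated. The concentration is filed as 10 mM, unlikely as a test dose, so the dose is not known. The record gives no direction; compounds that gave an IC50 in retests scored well above the rest, so higher reads as stronger inhibition. Size under these conditions: about 69,000 compounds, about 930 of them at 50% or above in at least one test.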

Values are the deposited “Percent Effect”, in %. How 0% and 100% were set is not recorded. Most values in the screen are low, and negative values occur. This is an unselected part of the compounds tested.

{"compound": "O=C(O)C(F)(F)F.[H][C@@]12CCCO[C@]1([H])[C@H](N(C)C)CN2C(=O)c1ccc(C#N)cc1", "Mtb growth Cornell": 7.932, "Mtb heat-shock": -5.084}
{"compound": "O=C1C(NCc2ccccc2O)CCN1Cc1ccccc1", "stereo": "stereo not drawn", "Mtb growth Cornell": 11.74, "Mtb heat-shock": -5.876}
{"compound": "Cn1cccc1C(=O)NCc1cn2c(n1)CN(S(=O)(=O)C1CC1)CC2", "Mtb growth Cornell": 30.91, "Mtb heat-shock": 4.233}
{"compound": "Cc1ccsc1[C@@H]1CCN(C(=O)Cc2ccc(O)cc2)C[C@H]1O", "Mtb growth Cornell": 22.25, "Mtb heat-shock": -8.635}
{"compound": "CCC(O)CN(CC(=O)Nc1cc(C)no1)c1ccccc1", "stereo": "stereo not drawn", "Mtb growth Cornell": 1.193, "Mtb heat-shock": 12.12}
{"compound": "NC1CCCCN(Cc2ccccc2CS(=O)(=O)c2ccccc2)C1", "stereo": "stereo not drawn", "Mtb growth Cornell": 19.66, "Mtb heat-shock": -37.67}
{"compound": "Cc1cnc(CNC(=O)C2CCOc3ccccc3C2)cn1", "stereo": "stereo not drawn", "Mtb growth Cornell": 13.21, "Mtb heat-shock": 26.16}
{"compound": "CCc1nnc(CN(C)C(=O)C(CC)n2c(CC)nc3ccccc32)o1", "stereo": "stereo not drawn", "Mtb growth Cornell": 5.212, "Mtb heat-shock": 11.81}
{"compound": "Cc1cc(C(C)(O)CNC(=O)OC(C)(C)C)c(C)o1", "stereo": "stereo not drawn", "Mtb growth Cornell": 14.94, "Mtb heat-shock": 9.595}
{"compound": "CN1C(=O)CC(C(=O)O)C12CCN(Cc1ccc(F)c(Cl)c1)CC2", "stereo": "stereo not drawn", "Mtb growth Cornell": 11.33, "Mtb heat-shock": 2.564}
{"compound": "Br.Cn1cc(CN2CCC(c3cc(COc4cccc(Cl)c4)[nH]n3)C2)cn1", "stereo": "stereo not drawn", "Mtb growth Cornell": 10.21, "Mtb heat-shock": -13.1}
{"compound": "O=C(O)C(F)(F)F.O=C(O)C(F)(F)F.[H][C@@]12CCN(Cc3ccccn3)C[C@]1(C(=O)N1CCCO1)CCO2", "Mtb growth Cornell": 16.34, "Mtb heat-shock": 9.26}
{"compound": "Cn1cc(C(=O)NCc2cn3c(n2)CN(CC2CCCC2)CC3)cn1.O=C(O)C(F)(F)F.O=C(O)C(F)(F)F", "Mtb growth Cornell": 7.788, "Mtb heat-shock": -30.02}
{"compound": "O=C1CN(C(=O)CSC2CCCc3ccccc32)CCN1", "stereo": "stereo not drawn", "Mtb heat-shock": 2.425}
{"compound": "CN(c1cccnn1)C1CCN(C(=O)c2n[nH]c3c2CCC3)CC1", "Mtb growth Cornell": -33.19, "Mtb heat-shock": -11.77}
{"compound": "COCCn1/c(=N\\C(=O)CN(C)S(C)(=O)=O)sc2cc(OC)ccc21", "Mtb growth Cornell": 4.882, "Mtb heat-shock": -5.747}
{"compound": "O=C(COCCOc1ccccc1)N1CCCC(n2ccnc2)C1", "stereo": "stereo not drawn", "Mtb heat-shock": 8.444}
{"compound": "Cc1oc(-c2nc(C#N)c(NCC(C)C)o2)cc1S(=O)(=O)N1CCCC1", "Mtb growth Cornell": 11.08, "Mtb heat-shock": -6.788}
{"compound": "CCOc1ccc(NS(=O)(=O)c2cc(C)c(C(=O)O)s2)c(C)c1", "Mtb heat-shock": 13.23}
{"compound": "Cc1nn(C)c(C)c1C1CCCN1C(=O)c1ccc2nnc(C)n2c1", "stereo": "stereo not drawn", "Mtb heat-shock": -17.05}
{"compound": "N#Cc1ccc(NCCC2CCN(CC(F)(F)F)CC2)nc1", "Mtb growth Cornell": 30.92, "Mtb heat-shock": 2.623}
{"compound": "CC(C)CCN1CCc2c(C(=O)N(C)Cc3ccccn3)nn(C)c2C1.O=C(O)C(F)(F)F.O=C(O)C(F)(F)F.O=C(O)C(F)(F)F", "Mtb growth Cornell": 13.38, "Mtb heat-shock": -19.6}
{"compound": "CC(C)N1CCc2c(C(=O)N3CCOCC3)nn(C)c2C1.O=C(O)C(F)(F)F", "Mtb growth Cornell": 10.53, "Mtb heat-shock": 1.567}
{"compound": "O=C(NCCn1nc(-n2cncn2)ccc1=O)c1ccccc1Br", "Mtb growth Cornell": 7.424, "Mtb heat-shock": -3.901}
{"compound": "CN(CCn1cncc1-c1cnc(N2CCOCC2)nc1)C1CCCC1", "Mtb growth Cornell": 27.99, "Mtb heat-shock": -5.328}
{"compound": "CC(NC(=O)N1CCC(n2cncn2)CC1)c1ccc(F)cc1F", "stereo": "stereo not drawn", "Mtb growth Cornell": 27.9, "Mtb heat-shock": 6.101}

Some entries from above, unchanged:

Result for O=C(NCCn1nc(-n2cncn2)ccc1=O)c1ccccc1Br was Mtb growth Cornell: 7.424%; Mtb heat-shock: -3.901%.
Result for CC(C)N1CCc2c(C(=O)N3CCOCC3)nn(C)c2C1.O=C(O)C(F)(F)F was Mtb growth Cornell: 10.53%; Mtb heat-shock: 1.567%.
Result for O=C(COCCOc1ccccc1)N1CCCC(n2ccnc2)C1 (stereo not drawn) was Mtb heat-shock: 8.444%.